These are yes or no findings as the source states them, for the method shown. Binding seen in cells or lysates may run through a third protein. A yes stands for co-enrichment or nearness to the bait. Other partners may have been found. Sequences can lack the tags named with a protein.

Data on one molecule can be found in paper PMC6104132.

The target in this test is T1, FLAG-Cj0371 protein (C. jejuni NCTC11168) (UniProt Q9PID1).
T1 sequence: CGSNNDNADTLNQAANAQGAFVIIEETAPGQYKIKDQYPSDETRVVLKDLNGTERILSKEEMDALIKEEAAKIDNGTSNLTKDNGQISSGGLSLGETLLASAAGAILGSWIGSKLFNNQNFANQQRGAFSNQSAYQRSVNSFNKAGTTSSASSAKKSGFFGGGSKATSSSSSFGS
The test can be described thus: affinity purification with mass spectrometry.

B1: CheV (cj0285c), chemotaxis protein (protein, UniProt Q0PBM1 1-318)
chain: MFDENIVKTGSNEMELVDFRIFKQGHDKVYEGIYGVNVSKVREIIKIPSLTELPGVPDYIEGIFDLRGVVIPVVNLAKWMQITEPESTMLKPRVIITEFSNILIGFIVHEAKRIRRINWKDIEPATFSTGSGALDKGKITGVTRIENDEVLLILDLESVVEDLGIYAPKTDIDFGKIEKFTGTALILDDSMTARKRVKEMMQQMGFQVVEAKDGVEGINKLEELSQIYGESLNDTLKIIVSDVEMPQMDGFHFAARIKEDPRFKDIPIVFNSSLSNEFMNEKGVQEAGGEGYLVKFNASDFFNEIAKVIKKHQSQEQG
Regarding B1, the binding result was “binds”.
